# Test results reported in the supplement of paper PMC9454738.
# This is one part of the list. This data set is noisy: repeats of one test often differ as much as different tests do.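 Assays used MDA-MB-231 triple-negative breast cancer cells and their brain-metastatic line MDA-MB-231BRM, stably carrying empty vector, full-length GLI1 or truncated tGLI1. After 48 h, viability was read with CellTiter-Blue and normalized to 1% DMSO vehicle. tGLI1 selectivity meant viability fell 20% more in tGLI1 cells than in vector and GLI1 cells.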
# What was measured:
# Experiment in all cases: cell viability relative to vehicle (DMSO) control (fraction); higher = more viable cells (less growth inhibition)
# Conditions in all cases: treatment time 48 h
# MDA-MB-231 GLI1 = system: MDA-MB-231 GLI1
# MDA-MB-231 Vector = system: MDA-MB-231 Vector
# MDA-MB-231 tGLI1 = system: MDA-MB-231 tGLI1
# MDA-MB-231BRM GLI1 = system: MDA-MB-231BRM GLI1
# MDA-MB-231BRM Vector = system: MDA-MB-231BRM Vector
# MDA-MB-231BRM tGLI1 = system: MDA-MB-231BRM tGLI1
Compound,cell viability (MDA-MB-231 GLI1; 0.05 µM),cell viability (MDA-MB-231 GLI1; 0.5 µM),cell viability (MDA-MB-231 GLI1; 5 µM),cell viability (MDA-MB-231 Vector; 0.05 µM),cell viability (MDA-MB-231 Vector; 0.5 µM),cell viability (MDA-MB-231 Vector; 5 µM),cell viability (MDA-MB-231 tGLI1; 0.05 µM),cell viability (MDA-MB-231 tGLI1; 0.5 µM),cell viability (MDA-MB-231 tGLI1; 5 µM),cell viability (MDA-MB-231BRM GLI1; 0.05 µM),cell viability (MDA-MB-231BRM GLI1; 0.5 µM),cell viability (MDA-MB-231BRM GLI1; 5 µM),cell viability (MDA-MB-231BRM Vector; 0.05 µM),cell viability (MDA-MB-231BRM Vector; 0.5 µM),cell viability (MDA-MB-231BRM Vector; 5 µM),cell viability (MDA-MB-231BRM tGLI1; 0.05 µM),cell viability (MDA-MB-231BRM tGLI1; 0.5 µM),cell viability (MDA-MB-231BRM tGLI1; 5 µM)
CCN1CCCC1CNC(=O)c1cc(S(=O)(=O)CC)c(N)cc1OC (centres undefined) [Amisulpride],1.1,1.13,1.11,1.04,1.2,1.19,1.05,1.17,1.21,1.02,1.04,1.04,1.01,1,1.02,1.17,1.04,1.04
Nc1nc(N)c2nc(-c3cccc(O)c3)c(-c3cccc(O)c3)nc2n1,1.28,1.31,0.415,1.84,1.3,0.989,1.13,1.17,1.1,0.531,1.04,0.438,0.59,1.04,0.619,1.02,1.05,0.975
COc1ccc(-c2cc3c(C)nc(N)nc3n([C@H]3CC[C@H](OCCO)CC3)c2=O)cn1,0.869,0.46,0.243,0.829,0.577,0.377,0.991,0.467,0.302,0.907,0.974,0.814,0.926,0.978,0.771,1.03,0.923,0.709
CCOc1cc(C(=O)N2CCC(N3CCN(C)CC3)CC2)ccc1Nc1ncc2c(n1)N(C1CCCC1)c1ccccc1C(=O)N2C,1.37,1.09,0.41,1.17,1.01,0.495,1.37,1.13,0.415,1.09,0.959,0.977,0.974,1.03,0.926,1.04,1.04,0.915
CCc1cnn2c(NCc3ccc[n+]([O-])c3)cc(N3CCCC[C@H]3CCO)nc12,0.161,0.189,0.151,0.273,0.279,0.0766,0.181,0.2,0.249,1.04,1.03,1.05,0.986,0.993,1.01,0.985,0.954,0.95
CC(=O)c1c(C)c2cnc(Nc3ccc(N4CCNCC4)cn3)nc2n(C2CCCC2)c1=O,1.15,1.1,0.598,1.26,0.888,0.571,0.874,1.15,0.491,0.893,0.882,0.839,0.874,0.793,0.922,0.878,0.822,0.861
CC(=O)Nc1nc(C)c(-c2ccc(Cl)c(S(=O)(=O)NCCO)c2)s1,1.39,1.3,0.97,1.83,1.18,0.817,1.36,1.2,0.272,1.1,1.2,0.922,1.25,0.751,1.05,0.628,1.15,0.935
CN(C)/N=N/c1[nH]cnc1C(N)=O [Dacarbazine (DTIC-Dome)],1.31,1.04,0.974,0.836,1.19,1.11,1.08,1.06,0.982,1.05,1.05,0.955,1.02,0.995,0.985,0.988,0.999,1.02
CN1CCN(S(=O)(=O)c2ccc(-c3cnc(N)c(C(=O)Nc4cccnc4)n3)cc2)CC1,1.34,1.37,0.779,0.808,0.857,0.708,1.38,1.29,0.974,1.19,1.03,1.04,1,1.09,1.04,1.09,1.05,1
CCN1/C(=C/C(C)=O)Sc2ccc(OC)cc21,1.16,1.44,1.07,1.49,1.4,1.09,1.29,1.31,1.33,1.01,0.942,1,1.12,1.02,1.05,0.96,0.991,0.998
C[S+]([O-])c1ccc(-c2nc(-c3ccc(F)cc3)c(-c3ccncc3)[nH]2)cc1 (centres undefined),1.45,1.82,1.32,1.43,1.28,0.932,1.13,1.29,1.02,0.924,0.934,0.881,0.94,0.87,0.981,0.899,0.896,0.904
O=C(NC(NC(=S)Nc1ccc(F)c([N+](=O)[O-])c1)C(Cl)(Cl)Cl)C(c1ccccc1)c1ccccc1 (centres undefined),1.47,1.7,0.0712,1.43,1.38,0.413,1.44,1.45,0.0981,1.13,0.998,0.774,1.15,1.06,0.777,1.04,0.985,0.795
CO[C@H]1C[C@@H]2CC[C@@H](C)[C@@](O)(O2)C(=O)C(=O)N2CCCC[C@H]2C(=O)O[C@H]([C@H](C)C[C@@H]2CC[C@H](n3cnnn3)[C@H](OC)C2)CC(=O)[C@H](C)/C=C(\C)[C@@H](O)[C@@H](OC)C(=O)[C@H](C)C[C@H](C)/C=C/C=C/C=C/1C [Zotarolimus(ABT-578)],0.853,1.04,0.625,0.836,0.974,0.95,0.886,0.938,0.694,1.05,0.901,0.759,1.06,0.946,0.754,0.978,0.883,0.69

# One compound at a time (already shown). Order of values: cell viability (MDA-MB-231 GLI1; 0.05 µM)	cell viability (MDA-MB-231 GLI1; 0.5 µM)	cell viability (MDA-MB-231 GLI1; 5 µM)	cell viability (MDA-MB-231 Vector; 0.05 µM)	cell viability (MDA-MB-231 Vector; 0.5 µM)	cell viability (MDA-MB-231 Vector; 5 µM)	cell viability (MDA-MB-231 tGLI1; 0.05 µM)	cell viability (MDA-MB-231 tGLI1; 0.5 µM)	cell viability (MDA-MB-231 tGLI1; 5 µM)	cell viability (MDA-MB-231BRM GLI1; 0.05 µM)	cell viability (MDA-MB-231BRM GLI1; 0.5 µM)	cell viability (MDA-MB-231BRM GLI1; 5 µM)	cell viability (MDA-MB-231BRM Vector; 0.05 µM)	cell viability (MDA-MB-231BRM Vector; 0.5 µM)	cell viability (MDA-MB-231BRM Vector; 5 µM)	cell viability (MDA-MB-231BRM tGLI1; 0.05 µM)	cell viability (MDA-MB-231BRM tGLI1; 0.5 µM)	cell viability (MDA-MB-231BRM tGLI1; 5 µM)
# C[S+]([O-])c1ccc(-c2nc(-c3ccc(F)cc3)c(-c3ccncc3)[nH]2)cc1 (centres undefined) reads 1.45	1.82	1.32	1.43	1.28	0.932	1.13	1.29	1.02	0.924	0.934	0.881	0.94	0.87	0.981	0.899	0.896	0.904
# O=C(NC(NC(=S)Nc1ccc(F)c([N+](=O)[O-])c1)C(Cl)(Cl)Cl)C(c1ccccc1)c1ccccc1 (centres undefined) reads 1.47	1.7	0.0712	1.43	1.38	0.413	1.44	1.45	0.0981	1.13	0.998	0.774	1.15	1.06	0.777	1.04	0.985	0.795
